# Primary screen of a compound library

The chains behind the UniProt entries cited, without tags or fusion partners. Residues count along the entry.
UniProt Q8IDJ8, 1-583: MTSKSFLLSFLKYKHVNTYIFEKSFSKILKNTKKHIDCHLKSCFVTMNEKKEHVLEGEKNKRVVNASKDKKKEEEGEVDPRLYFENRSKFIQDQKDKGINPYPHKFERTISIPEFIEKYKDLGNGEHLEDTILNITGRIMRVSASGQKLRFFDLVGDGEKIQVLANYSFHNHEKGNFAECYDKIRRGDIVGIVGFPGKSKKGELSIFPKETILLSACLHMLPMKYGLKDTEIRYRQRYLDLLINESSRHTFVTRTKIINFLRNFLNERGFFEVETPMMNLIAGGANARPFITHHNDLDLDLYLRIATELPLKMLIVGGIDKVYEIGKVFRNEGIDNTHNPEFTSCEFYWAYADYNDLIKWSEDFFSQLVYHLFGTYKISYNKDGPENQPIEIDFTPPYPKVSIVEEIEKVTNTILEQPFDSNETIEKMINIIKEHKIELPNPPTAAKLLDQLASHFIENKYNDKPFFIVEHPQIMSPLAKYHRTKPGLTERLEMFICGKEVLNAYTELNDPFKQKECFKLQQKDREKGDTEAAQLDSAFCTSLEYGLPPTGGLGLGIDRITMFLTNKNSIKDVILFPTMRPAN

Source: ChEMBL document CHEMBL3988442, “University of Dundee, Small-Polar-MMV Screening Library” (2021).

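Enzyme assay of the cytosolic lysyl-tRNA synthetase in 384-well plates, read by luminescence. Target: Lysine-tRNA ligase, Plasmodium falciparum 3D7 (UniProt Q8IDJ8). Tested at 30 µM. Direction is inferred from only a few compounds that gave an IC50; most scored high, so higher reads as stronger inhibition. Of about 69,000 compounds tested this way, about 49 (0.071%) reached 50% or more in at least one test.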

The filed quantity is “Percent Effect” (%).
How 0% and 100% were set is not recorded. Most values in the screen are low, and negative values occur.
The compounds are a random part of those screened.

Compound,percent effect
C[C@@H]1CN(CCCOc2ccc(F)cc2)CC[C@@]1(O)C1CCOCC1,4.247
Cc1ncc(-c2ccncc2)c(C2CCN(C(=O)c3ccno3)CC2)n1,0.08537
NC(=O)c1ccc(NC(=O)CCN2CCCC(N3CCCC3)C2)cc1 (stereo unspecified),-2.685
COC(=O)CNC(=O)c1nc(Br)sc1C(C)C,0.4352
CNC(=O)c1n[nH]c2c1C(c1cccc3c1OC(C)(C)C3)CC(=O)N2 (stereo unspecified),1.863
CNC(=O)C1Cc2ccccc2CN1C(=O)CC(C)C (stereo unspecified),6.783
Cc1cnn(CC2CCCCN2C(=O)Cc2c(C)noc2C)c1 (stereo unspecified),0.08172
Cc1nc(C2(NCC(=O)NC(=O)NCc3cccs3)CCCCC2)no1,3.239
Cc1ncsc1C(=O)N1CCCN(Cc2cscn2)CC1,4.161
CN(Cc1cccnc1)C1CC2(CCN(C(=O)c3cscn3)CC2)C1,-1.232
CC(=O)c1cc(CN2C[C@@H](CN3CCCC3)[C@@H](CO)C2)n(C)c1,1.665
COC(=O)CN(C(=O)c1ccoc1)c1cccc(F)c1,0
CC(CNC(=O)c1ccc(Cl)cc1F)N1CCCC1 (stereo unspecified),3.211
COc1ccc2c(c1)C(C(=O)N(C)CCn1ccnc1C)CC(=O)N2 (stereo unspecified),2.878
Cc1nc(-c2cnn(C)c2)nc2c1CN(C(=O)c1cccnc1)CC2,4.237
COCc1cnc2n1CCN(C(=O)c1cn(C)c3ccccc13)C2C (stereo unspecified),3.573
O=C1CSC(c2ccc3c(c2)OCO3)c2cn[nH]c2N1 (stereo unspecified),0.5602
Cc1cccc(CN(Cc2cccnc2)C2CC(C)(C)NC(C)(C)C2)n1,2.824
Cc1nnc2n1CCN(CC(=O)N1CCc3ccccc3C1)C2,-2.72
Cn1cc(NC(=O)Cn2c(CS(C)(=O)=O)nc3ccccc32)cn1,2.263
COCCN1CCC2(CCC(=O)N2Cc2csc(C)n2)CC1,0
O=S(=O)(c1ccccc1)N1CCC2(CCCN2CC2CCCC2)C1 (stereo unspecified),2.829
CCn1c(CC2CCN(C(=O)C3CNCCO3)CC2)nn(C)c1=O (stereo unspecified),4.108
Cc1cnc2c(S(=O)(=O)NCC3CCOC3)cccc2c1 (stereo unspecified),0.4763
CCc1nc(N)nc(N2CCCC3(CCOCC3)C2)c1C,-0.3464
CC(C)c1csc(C2CCCN(C(=O)c3ccc(=O)n(C)n3)C2)n1 (stereo unspecified),-9.926
CN(Cc1nnc(C2CC2)o1)C1CCN(CCCc2cnn(C)c2)C1 (stereo unspecified),3.888
CC(C)CC(=O)N1CCC(Nc2nc(O)cc(-c3ccsc3)n2)CC1,-0.0743
CNC(=O)c1cccc(NC(=O)c2ccnc(N(C)C)c2)c1C,2.525
CCc1nc(CN2CCCN(c3nccs3)CC2)no1,2.817
CCCc1cc(=O)[nH]c(SCc2ccccn2)n1,0.2453
O=C(NC1CCCN(CCc2ccccc2)C1)c1cnccn1 (stereo unspecified),3.686
Cc1nn(C)c(N2CCOCC2)c1CNC1CCc2ccccc21 (stereo unspecified),1.473
CCN1CCC(CNC(=O)c2cc(Cl)c[nH]2)CC1,1.771
Cc1c(C)n2c(SCC(=O)N3CCC(C)CC3)nnc2[nH]c1=O,4.118
O=C(CN(Cc1cccs1)C1CCS(=O)(=O)C1)NCCc1cccs1 (stereo unspecified),4.185
O=c1nc(SCc2cccnc2)c2c(n1CCO)CCCC2,5.938
CC(=O)N(CCc1ccccc1)CC(=O)NC1(C#N)CC1,2.376
Cc1nc(NCc2ccc(F)cc2)cc(C2CCCN2)n1 (stereo unspecified),7.217
CCc1ccc(-c2noc(Cn3nc(C(N)=O)ccc3=O)n2)cc1,-4.538
COc1ncc(NCc2ccsc2)cc1C(N)=O,-4.16
O=c1oc(-c2cccs2)nn1CC(O)c1ccc2c(c1)CCC2 (stereo unspecified),-1.99
CCc1cc(CNC(=O)c2cc(NC(=O)C(C)C)ccc2Cl)[nH]n1,2.318
CC(=O)N1CCC1c1cc(N2CCSCC2)nc(C)n1 (stereo unspecified),0.7114
N#Cc1ccc(CN2CCOCC2)cc1,0.8965
CC(c1nc(C(C)(C)C)no1)S(=O)(=O)CC(=O)N1CCCC1 (stereo unspecified),3.816
CNC(=O)C(C)(C)N1CCC[C@H]1C(=O)NCCN1CCCC1,4.782
CC1c2ncc(CNC(=O)C3CC3)n2CCN1Cc1ccsc1 (stereo unspecified),-3.397
Cc1nn(C)c(C)c1C(C(=O)O)N1CC=C(c2ccccc2)CC1 (stereo unspecified),1.055
COc1cccc(OCCn2c(C)c(C)oc2=O)c1,5.828

For reference, 6 entries once more:

Compound,percent effect
COC(=O)CNC(=O)c1nc(Br)sc1C(C)C,0.4352
COC(=O)CN(C(=O)c1ccoc1)c1cccc(F)c1,0
N#Cc1ccc(CN2CCOCC2)cc1,0.8965
CC1c2ncc(CNC(=O)C3CC3)n2CCN1Cc1ccsc1 (stereo unspecified),-3.397
CC(=O)N(CCc1ccccc1)CC(=O)NC1(C#N)CC1,2.376
CC(C)CC(=O)N1CCC(Nc2nc(O)cc(-c3ccsc3)n2)CC1,-0.0743